The text below walks through data of US6919204B2, “Modulation of gene expression using localization domains” (Sangamo Biosciences, Inc., priority 2000, dated 2005).

Sequences of proteins named here, by UniProt entry; tags and fusion partners are left off.
UniProt O97159: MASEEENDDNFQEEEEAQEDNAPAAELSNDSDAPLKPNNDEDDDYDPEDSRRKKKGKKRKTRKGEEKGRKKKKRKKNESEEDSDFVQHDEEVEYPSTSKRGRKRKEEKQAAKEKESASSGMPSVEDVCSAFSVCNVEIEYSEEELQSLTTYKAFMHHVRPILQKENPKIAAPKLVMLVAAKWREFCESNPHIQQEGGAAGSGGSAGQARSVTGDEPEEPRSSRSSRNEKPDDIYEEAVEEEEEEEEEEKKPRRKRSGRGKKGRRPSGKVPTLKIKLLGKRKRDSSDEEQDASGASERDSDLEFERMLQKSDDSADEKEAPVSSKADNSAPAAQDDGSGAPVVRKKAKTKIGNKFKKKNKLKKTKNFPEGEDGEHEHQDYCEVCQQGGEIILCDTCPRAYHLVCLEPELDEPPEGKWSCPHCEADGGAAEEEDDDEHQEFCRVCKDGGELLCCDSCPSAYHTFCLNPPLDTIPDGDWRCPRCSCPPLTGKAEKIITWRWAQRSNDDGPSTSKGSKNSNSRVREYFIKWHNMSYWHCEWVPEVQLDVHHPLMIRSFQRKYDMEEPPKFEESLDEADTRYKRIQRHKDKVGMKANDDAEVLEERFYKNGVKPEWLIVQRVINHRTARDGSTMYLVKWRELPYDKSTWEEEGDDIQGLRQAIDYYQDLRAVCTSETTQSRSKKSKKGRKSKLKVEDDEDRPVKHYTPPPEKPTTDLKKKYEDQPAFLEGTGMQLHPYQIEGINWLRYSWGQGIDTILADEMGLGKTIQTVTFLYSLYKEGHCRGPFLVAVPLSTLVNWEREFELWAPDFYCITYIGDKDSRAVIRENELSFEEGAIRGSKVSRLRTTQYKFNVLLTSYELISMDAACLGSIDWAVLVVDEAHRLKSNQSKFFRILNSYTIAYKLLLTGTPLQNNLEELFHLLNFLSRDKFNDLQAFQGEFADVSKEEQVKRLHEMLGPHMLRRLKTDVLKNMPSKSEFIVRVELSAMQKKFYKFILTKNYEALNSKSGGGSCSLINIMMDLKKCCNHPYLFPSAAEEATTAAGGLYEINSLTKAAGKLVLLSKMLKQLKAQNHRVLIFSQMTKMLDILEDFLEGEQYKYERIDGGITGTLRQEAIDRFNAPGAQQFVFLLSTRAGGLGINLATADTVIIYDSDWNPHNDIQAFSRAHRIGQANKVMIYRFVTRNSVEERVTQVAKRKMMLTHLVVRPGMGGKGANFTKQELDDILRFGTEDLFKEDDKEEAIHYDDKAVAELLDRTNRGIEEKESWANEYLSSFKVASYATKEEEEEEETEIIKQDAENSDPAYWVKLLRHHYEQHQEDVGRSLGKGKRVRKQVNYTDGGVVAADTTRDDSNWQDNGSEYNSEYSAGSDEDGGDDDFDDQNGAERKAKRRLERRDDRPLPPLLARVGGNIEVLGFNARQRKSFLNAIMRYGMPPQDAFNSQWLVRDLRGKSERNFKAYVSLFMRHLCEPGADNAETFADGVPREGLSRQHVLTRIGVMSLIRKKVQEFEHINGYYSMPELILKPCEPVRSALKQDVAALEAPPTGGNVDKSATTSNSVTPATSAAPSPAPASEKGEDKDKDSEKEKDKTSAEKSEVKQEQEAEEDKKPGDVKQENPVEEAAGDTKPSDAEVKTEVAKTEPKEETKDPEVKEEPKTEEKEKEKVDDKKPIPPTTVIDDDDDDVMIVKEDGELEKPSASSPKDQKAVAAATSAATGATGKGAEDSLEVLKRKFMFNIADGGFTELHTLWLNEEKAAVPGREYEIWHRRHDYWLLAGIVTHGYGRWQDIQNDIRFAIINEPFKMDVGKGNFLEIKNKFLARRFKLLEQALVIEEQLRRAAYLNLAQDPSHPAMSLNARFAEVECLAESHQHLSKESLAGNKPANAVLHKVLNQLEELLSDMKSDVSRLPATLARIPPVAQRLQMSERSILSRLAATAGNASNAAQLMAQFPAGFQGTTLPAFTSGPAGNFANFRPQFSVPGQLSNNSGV

No constants are given. Whether binding was seen depends on the method and setting. In cells and extracts the contact can be indirect. Some results given as binding are weak or reduced against the parent protein; the word gives no strength.

The experiment has as its target Mi-2 (Drosophila) (UniProt O97159). Nature of the experiment: co-elution on Superose 6 gel filtration (about 1 MDa) after BioRex 70 and MonoQ, immunoblot. On the technique in general: Size exclusion chromatography separates by hydrodynamic size, large species first.

B1: Drosophila MBD-likeΔ (protein)
chain: MQMNPSVTIERKRVDCSVLPKGWQRDEVRKSGSSANNNASSNNNSSATASSNNNNNKVDVFYYSRALRTDVSLVPPIRQTASIFKQPVTVIRNHKQDPAKAKNEPKHGTREKPKQLFWEKRLERLRACHDSGEELDDISLPKTIRTVGPNVNEQTVLQSVATALHMLNAGVHGQSSTKADLTKNAMAFMNPEQPLMHAVIISEDDIRKQEDRVGVARRKLQDALKT
Consider B1, for which the binding result is on record as “binds”.
